These are yes or no findings as the source states them, for the method shown. In cells and extracts the contact can be indirect. Here binding means that the protein was enriched with, or labelled near, the bait; the list need not be complete. For some assays here: A no says only that the protein was not detected with the bait. For some assays here: Tags and fused reporters may be left off the sequences shown. Blank lines part the entries; values can stand above or below the molecule they belong to.
How the values were obtained:
Test in all cases: affinity purification with mass spectrometry; in vivo interaction proteomics (IVI-MS): 2-week-old seedlings crosslinked with 1% formaldehyde, nuclei isolated and lysed, GFP-tagged bait held on GFP-Trap_A agarose beads (5 h, 4 °C), crosslinks reversed, LFQ mass spectrometry against WT; lines HAKAIpro:HAKAI-GFP/hakai and MTApro:MTA-GFP/mta
[1] = target: T1, GFP-tagged HAKAI (Arabidopsis) (UniProt Q9LFC0)
T1 sequence: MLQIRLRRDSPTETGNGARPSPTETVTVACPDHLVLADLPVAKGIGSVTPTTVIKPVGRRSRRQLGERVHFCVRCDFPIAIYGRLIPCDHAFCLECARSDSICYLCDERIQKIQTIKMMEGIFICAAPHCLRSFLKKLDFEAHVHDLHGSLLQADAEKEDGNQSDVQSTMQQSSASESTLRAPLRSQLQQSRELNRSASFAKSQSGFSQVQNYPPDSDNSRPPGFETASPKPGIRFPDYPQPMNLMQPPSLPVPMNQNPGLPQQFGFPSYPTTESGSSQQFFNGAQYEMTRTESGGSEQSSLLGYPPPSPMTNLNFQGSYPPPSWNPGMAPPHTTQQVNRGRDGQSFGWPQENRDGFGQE

Chains of the proteins cited; added tags and fusions are not shown.
UniProt O82486: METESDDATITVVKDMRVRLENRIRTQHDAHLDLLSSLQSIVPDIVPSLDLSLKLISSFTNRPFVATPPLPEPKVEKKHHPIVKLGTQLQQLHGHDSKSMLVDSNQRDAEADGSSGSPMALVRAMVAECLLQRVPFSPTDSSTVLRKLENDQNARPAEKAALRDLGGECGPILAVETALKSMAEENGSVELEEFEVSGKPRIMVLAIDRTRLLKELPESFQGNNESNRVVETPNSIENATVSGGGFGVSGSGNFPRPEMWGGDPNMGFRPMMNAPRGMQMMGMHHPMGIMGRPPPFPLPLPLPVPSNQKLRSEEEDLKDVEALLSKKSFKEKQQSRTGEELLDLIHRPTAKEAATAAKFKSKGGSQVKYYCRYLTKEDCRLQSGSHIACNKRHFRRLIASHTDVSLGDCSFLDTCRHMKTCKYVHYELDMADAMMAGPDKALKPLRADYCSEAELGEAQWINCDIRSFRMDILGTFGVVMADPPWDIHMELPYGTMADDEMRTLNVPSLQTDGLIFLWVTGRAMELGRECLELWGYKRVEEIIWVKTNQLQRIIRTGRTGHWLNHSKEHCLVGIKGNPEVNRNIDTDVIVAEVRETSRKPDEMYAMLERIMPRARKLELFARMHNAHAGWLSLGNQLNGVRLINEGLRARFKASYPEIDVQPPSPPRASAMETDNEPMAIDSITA
UniProt F4J8G7: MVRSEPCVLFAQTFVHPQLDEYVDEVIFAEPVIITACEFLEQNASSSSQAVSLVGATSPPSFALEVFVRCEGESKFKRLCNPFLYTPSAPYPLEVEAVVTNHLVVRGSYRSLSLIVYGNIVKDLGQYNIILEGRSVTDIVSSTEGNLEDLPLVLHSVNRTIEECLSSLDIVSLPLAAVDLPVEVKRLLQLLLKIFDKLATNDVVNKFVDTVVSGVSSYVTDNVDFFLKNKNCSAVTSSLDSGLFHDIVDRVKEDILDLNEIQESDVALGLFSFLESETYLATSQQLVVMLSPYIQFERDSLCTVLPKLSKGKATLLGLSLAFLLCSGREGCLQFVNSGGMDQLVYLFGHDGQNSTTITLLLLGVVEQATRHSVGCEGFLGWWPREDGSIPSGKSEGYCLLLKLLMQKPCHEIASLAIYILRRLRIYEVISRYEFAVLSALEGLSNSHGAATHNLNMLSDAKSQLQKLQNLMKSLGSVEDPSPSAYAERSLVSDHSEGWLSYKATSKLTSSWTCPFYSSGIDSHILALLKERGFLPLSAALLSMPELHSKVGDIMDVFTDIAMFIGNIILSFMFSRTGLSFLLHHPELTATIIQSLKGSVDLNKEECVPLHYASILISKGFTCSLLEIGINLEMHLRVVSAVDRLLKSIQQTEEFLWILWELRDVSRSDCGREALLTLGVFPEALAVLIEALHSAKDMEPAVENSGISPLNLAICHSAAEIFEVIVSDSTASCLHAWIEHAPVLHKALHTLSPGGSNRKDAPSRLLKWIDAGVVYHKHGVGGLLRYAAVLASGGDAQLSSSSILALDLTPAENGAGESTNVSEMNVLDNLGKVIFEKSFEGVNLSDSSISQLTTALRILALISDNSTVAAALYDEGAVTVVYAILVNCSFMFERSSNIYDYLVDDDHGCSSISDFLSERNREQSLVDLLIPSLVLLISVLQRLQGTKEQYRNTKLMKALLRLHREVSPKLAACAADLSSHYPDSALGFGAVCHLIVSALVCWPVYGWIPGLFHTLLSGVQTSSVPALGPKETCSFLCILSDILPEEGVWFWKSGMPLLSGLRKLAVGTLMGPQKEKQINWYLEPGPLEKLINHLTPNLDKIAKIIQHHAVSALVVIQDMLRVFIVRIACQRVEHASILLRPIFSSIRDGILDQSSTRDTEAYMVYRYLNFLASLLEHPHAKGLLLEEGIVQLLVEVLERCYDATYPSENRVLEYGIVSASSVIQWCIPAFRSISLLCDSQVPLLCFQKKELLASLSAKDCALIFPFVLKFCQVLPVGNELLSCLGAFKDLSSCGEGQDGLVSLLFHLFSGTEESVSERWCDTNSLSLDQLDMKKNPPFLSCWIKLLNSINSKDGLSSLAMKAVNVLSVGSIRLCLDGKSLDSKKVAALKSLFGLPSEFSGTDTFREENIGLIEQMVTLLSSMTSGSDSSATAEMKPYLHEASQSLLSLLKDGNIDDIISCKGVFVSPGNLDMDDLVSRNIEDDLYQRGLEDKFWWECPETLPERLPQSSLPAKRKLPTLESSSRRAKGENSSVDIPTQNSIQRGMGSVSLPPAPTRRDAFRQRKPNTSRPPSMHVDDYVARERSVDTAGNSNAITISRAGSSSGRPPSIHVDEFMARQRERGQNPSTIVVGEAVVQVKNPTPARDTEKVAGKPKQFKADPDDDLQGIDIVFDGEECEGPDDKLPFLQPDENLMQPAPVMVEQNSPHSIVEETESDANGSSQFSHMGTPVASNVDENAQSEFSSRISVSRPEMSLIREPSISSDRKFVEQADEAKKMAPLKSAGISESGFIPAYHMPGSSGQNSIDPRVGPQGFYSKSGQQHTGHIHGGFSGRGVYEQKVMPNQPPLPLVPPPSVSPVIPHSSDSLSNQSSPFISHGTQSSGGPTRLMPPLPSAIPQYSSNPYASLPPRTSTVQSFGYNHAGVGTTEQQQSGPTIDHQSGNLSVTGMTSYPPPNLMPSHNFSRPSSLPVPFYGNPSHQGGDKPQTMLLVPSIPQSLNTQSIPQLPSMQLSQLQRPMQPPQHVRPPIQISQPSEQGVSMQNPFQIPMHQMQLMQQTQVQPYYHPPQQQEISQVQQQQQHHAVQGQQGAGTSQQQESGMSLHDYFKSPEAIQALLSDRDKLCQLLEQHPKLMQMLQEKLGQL

[2] = target: GFP-tagged MTA (mRNA adenosine methylase A) (Arabidopsis) (UniProt O82486)
[3] = target: T2, GFP-tagged HAKAI (Arabidopsis), Q9LFC0; conditions: remark: other sources report otherwise
T2 chain: T1 sequence

binding [1]: binds
Molecule: HAKAI-interacting zinc finger protein 2 (HIZ2) (Arabidopsis (endogenous in seedlings))

binding [1]: binds
Molecule: mRNA adenosine methylase A (MTA) (from UniProt O82486 1-685)

Molecule: VIRILIZER (VIR) (from UniProt F4J8G7 1-2138)
binding [1]: binds | binding [2]: binds

B1: HAKAI (protein, UniProt Q9LFC0 1-360)
chain: T1 sequence
binding [2]: binds

binding [1]: binds
B2: heat shock protein 70 family member Hsp70-15 (protein, UniProt F4HQD4 1-831)
chain: MSVVGFDFGNENCLVAVARQRGIDVVLNDESNRETPAIVCFGDKQRFIGTAGAASTMMNPKNSISQIKRLIGRQFSDPELQRDIKSLPFSVTEGPDGYPLIHANYLGEIRAFTPTQVMGMMLSNLKGIAEKNLNTAVVDCCIGIPVYFTDLQRRAVLDAATIAGLHPLHLIHETTATALAYGIYKTDLPENDQLNVAFIDIGHASMQVCIAGFKKGQLKILSHAFDRSLGGRDFDEVLFNHFAAKFKDEYKIDVSQNAKASLRLRATCEKLKKVLSANPMAPLNIECLMAEKDVRGVIKREEFEEISIPILERVKRPLEKALSDAGLTVEDVHMVEVVGSGSRVPAMIKILTEFFGKEPRRTMNASECVSRGCALQCAILSPTFKVREFQVHESFPFSISLAWKGAATDAQNGGTENQQSTIVFPKGNPIPSVKALTFYRSGTFSIDVQYSDVNDLQAPPKISTYTIGPFQSSKGERAKLKVKVRLNLHGIVSVESATLLEEEEVEVSVTKDQSEETAKMDTDKASAEAAPASGDSDVNMQDAKDTSDATGTDNGVPESAEKPVQMETDSKAEAPKKKVKKTNVPLSELVYGALKTVEVEKAVEKEFEMALQDRVMEETKDRKNAVESYVYDMRNKLSDKYQEYITDSEREAFLANLQEVEDWLYEDGEDETKGVYVAKLEELKKVGDPVEVRYKESLERGSVIDQLGYCINSYREAAVSNDPKFDHIELAEKQKVLNECVEAEAWLREKQQQQDTLPKYATPALLSADVKSKAEALDKFCRPIMTKPKPAAKAEAPQAKGGEQADEGKSEPEQPASAEAMETENPAEGST

B3: mRNA adenosine methylase B (MTB) (protein, UniProt Q94AI4 1-775)
chain: MKKKQEESSLEKLSTWYQDGEQDGGDRSEKRRMSLKASDFESSSRSGGSKSKEDNKSVVDVEHQDRDSKRERDGRERTHGSSSDSSKRKRWDEAGGLVNDGDHKSSKLSDSRHDSGGERVSVSNEHGESRRDLKSDRSLKTSSRDEKSKSRGVKDDDRGSPLKKTSGKDGSEVVREVGRSNRSKTPDADYEKEKYSRKDERSRGRDDGWSDRDRDQEGLKDNWKRRHSSSGDKDQKDGDLLYDRGREREFPRQGRERSEGERSHGRLGGRKDGNRGEAVKALSSGGVSNENYDVIEIQTKPHDYVRGESGPNFARMTESGQQPPKKPSNNEEEWAHNQEGRQRSETFGFGSYGEDSRDEAGEASSDYSGAKARNQRGSTPGRTNFVQTPNRGYQTPQGTRGNRPLRGGKGRPAGGRENQQGAIPMPIMGSPFANLGMPPPSPIHSLTPGMSPIPGTSVTPVFMPPFAPTLIWPGARGVDGNMLPVPPVLSPLPPGPSGPRFPSIGTPPNPNMFFTPPGSDRGGPPNFPGSNISGQMGRGMPSDKTSGGWVPPRGGGPPGKAPSRGEQNDYSQNFVDTGMRPQNFIRELELTNVEDYPKLRELIQKKDEIVSNSASAPMYLKGDLHEVELSPELFGTKFDVILVDPPWEEYVHRAPGVSDSMEYWTFEDIINLKIEAIADTPSFLFLWVGDGVGLEQGRQCLKKWGFRRCEDICWVKTNKSNAAPTLRHDSRTVFQRSKEHCLMGIKGTVRRSTDGHIIHANIDTDVIIAEEPPYG
binding [2]: binds

B4: mRNA adenosine methylase B (MTB), Q94AI4 1-775 (protein)
chain: B3 chain
binding [3]: no binding

binding [1]: binds
B5: HAKAI-interacting zinc finger protein 1 (HIZ1) (protein, UniProt Q9LQM3 1-384)
chain: MSHHRRDSGGDVVHVIPTNNPPPDNWFPNLGDSAVWATEDDYNRAWAMNPDNTSGDNNGPPNKKTRGSPSSSSATTTSAASNRTKAIGKMFFKTKLCCKFRAGTCPYITNCNFAHTVEELRRPPPNWQEIVAAHEEERSGGMGTPTVSVVEIPREEFQIPSLVSSTAESGRSFKGRHCKKFYTEEGCPYGESCTFLHDEASRNRESVAISLGPGGYGSGGGGGSGGGSVGGGGSSSNVVVLGGGGGSGSGSGIQILKPSNWKTRICNKWEITGYCPFGAKCHFAHGAAELHRFGGGLVEEEGKDGVSPNPDTKQTVQNPKGLSDTTTLLSPGVPHNADASYHTGVALQRASSAVTQKPGIRTHQKWKGPAKISRIYGDWIDDIE

B6: FKBP12 interacting protein 37 (FIP37) (protein, UniProt Q9ZSZ8 1-330)
chain: MEFSSQDDDFGGDDSAANATRASGNRRSFGDLEDDEDDIFGSTTVAPGVRTGMILSLRGSLKNCKDDLASCQNELESAKTEIQKWKSAFQNESFVPAGKSPEPRFLIDYIQNLKSSEKSLKEQLEIAKRKEASCIVQYAKREQEMAELKSAVRDLKSQLKPASMQARRLLLDPAIHEEFSRLKNLVEEKDKKIKELQDNIAAVTFTPQSKNGKMLMAKCRTLQEENEEIGHQAAEGKIHELAIKLAMQKSQNAELRSQFEGLYKHMEELTNDVERSNETVIILQEKLEEKEKEIERVKKGLEIVSELVGDKKDEVDEIDEDAKEEIAGGE
binding [1]: binds | binding [2]: binds

From publication PMC8891334
